According to the supplement of paper PMC10849652:
Some of the results follow.

By UniProt entry, the sequences of proteins in these tests, tags left out. Where a name states a change or a piece, a line headed by the entry shows the natural chain unless it says otherwise.
UniProt Q93084: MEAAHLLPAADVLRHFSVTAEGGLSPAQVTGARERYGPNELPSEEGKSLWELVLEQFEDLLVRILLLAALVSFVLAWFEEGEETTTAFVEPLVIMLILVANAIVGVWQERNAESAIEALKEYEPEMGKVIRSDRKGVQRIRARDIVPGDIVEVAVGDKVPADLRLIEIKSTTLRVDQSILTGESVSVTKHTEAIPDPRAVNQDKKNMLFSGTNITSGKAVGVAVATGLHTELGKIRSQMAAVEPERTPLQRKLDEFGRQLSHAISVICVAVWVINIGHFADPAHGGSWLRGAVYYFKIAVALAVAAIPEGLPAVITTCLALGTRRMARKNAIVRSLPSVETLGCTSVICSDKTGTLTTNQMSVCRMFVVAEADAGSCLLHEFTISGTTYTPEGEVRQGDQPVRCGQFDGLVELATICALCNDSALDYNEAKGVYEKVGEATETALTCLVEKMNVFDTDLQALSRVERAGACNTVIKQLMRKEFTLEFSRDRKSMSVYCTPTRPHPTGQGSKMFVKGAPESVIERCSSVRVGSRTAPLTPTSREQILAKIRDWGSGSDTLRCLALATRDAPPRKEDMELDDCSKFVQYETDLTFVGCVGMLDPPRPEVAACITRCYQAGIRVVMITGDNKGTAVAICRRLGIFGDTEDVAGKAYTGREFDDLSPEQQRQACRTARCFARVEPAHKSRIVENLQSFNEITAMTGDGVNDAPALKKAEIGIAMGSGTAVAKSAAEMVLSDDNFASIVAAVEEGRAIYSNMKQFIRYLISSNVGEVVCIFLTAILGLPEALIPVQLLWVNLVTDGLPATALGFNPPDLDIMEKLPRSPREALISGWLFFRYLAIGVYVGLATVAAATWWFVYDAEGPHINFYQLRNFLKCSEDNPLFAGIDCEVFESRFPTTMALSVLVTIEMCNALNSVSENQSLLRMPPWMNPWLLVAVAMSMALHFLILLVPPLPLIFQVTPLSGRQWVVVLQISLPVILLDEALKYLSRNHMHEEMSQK
UniProt Q8N2F6: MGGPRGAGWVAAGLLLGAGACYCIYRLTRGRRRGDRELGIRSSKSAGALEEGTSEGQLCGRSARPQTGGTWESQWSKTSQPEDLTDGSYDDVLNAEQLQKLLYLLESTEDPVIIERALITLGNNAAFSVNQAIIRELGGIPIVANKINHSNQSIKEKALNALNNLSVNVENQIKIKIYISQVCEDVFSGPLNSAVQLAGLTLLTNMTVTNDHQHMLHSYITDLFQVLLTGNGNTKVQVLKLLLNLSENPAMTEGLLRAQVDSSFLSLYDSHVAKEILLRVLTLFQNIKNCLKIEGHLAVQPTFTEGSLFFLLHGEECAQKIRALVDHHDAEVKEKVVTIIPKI
UniProt Q8N3C0, whole entry, looked up: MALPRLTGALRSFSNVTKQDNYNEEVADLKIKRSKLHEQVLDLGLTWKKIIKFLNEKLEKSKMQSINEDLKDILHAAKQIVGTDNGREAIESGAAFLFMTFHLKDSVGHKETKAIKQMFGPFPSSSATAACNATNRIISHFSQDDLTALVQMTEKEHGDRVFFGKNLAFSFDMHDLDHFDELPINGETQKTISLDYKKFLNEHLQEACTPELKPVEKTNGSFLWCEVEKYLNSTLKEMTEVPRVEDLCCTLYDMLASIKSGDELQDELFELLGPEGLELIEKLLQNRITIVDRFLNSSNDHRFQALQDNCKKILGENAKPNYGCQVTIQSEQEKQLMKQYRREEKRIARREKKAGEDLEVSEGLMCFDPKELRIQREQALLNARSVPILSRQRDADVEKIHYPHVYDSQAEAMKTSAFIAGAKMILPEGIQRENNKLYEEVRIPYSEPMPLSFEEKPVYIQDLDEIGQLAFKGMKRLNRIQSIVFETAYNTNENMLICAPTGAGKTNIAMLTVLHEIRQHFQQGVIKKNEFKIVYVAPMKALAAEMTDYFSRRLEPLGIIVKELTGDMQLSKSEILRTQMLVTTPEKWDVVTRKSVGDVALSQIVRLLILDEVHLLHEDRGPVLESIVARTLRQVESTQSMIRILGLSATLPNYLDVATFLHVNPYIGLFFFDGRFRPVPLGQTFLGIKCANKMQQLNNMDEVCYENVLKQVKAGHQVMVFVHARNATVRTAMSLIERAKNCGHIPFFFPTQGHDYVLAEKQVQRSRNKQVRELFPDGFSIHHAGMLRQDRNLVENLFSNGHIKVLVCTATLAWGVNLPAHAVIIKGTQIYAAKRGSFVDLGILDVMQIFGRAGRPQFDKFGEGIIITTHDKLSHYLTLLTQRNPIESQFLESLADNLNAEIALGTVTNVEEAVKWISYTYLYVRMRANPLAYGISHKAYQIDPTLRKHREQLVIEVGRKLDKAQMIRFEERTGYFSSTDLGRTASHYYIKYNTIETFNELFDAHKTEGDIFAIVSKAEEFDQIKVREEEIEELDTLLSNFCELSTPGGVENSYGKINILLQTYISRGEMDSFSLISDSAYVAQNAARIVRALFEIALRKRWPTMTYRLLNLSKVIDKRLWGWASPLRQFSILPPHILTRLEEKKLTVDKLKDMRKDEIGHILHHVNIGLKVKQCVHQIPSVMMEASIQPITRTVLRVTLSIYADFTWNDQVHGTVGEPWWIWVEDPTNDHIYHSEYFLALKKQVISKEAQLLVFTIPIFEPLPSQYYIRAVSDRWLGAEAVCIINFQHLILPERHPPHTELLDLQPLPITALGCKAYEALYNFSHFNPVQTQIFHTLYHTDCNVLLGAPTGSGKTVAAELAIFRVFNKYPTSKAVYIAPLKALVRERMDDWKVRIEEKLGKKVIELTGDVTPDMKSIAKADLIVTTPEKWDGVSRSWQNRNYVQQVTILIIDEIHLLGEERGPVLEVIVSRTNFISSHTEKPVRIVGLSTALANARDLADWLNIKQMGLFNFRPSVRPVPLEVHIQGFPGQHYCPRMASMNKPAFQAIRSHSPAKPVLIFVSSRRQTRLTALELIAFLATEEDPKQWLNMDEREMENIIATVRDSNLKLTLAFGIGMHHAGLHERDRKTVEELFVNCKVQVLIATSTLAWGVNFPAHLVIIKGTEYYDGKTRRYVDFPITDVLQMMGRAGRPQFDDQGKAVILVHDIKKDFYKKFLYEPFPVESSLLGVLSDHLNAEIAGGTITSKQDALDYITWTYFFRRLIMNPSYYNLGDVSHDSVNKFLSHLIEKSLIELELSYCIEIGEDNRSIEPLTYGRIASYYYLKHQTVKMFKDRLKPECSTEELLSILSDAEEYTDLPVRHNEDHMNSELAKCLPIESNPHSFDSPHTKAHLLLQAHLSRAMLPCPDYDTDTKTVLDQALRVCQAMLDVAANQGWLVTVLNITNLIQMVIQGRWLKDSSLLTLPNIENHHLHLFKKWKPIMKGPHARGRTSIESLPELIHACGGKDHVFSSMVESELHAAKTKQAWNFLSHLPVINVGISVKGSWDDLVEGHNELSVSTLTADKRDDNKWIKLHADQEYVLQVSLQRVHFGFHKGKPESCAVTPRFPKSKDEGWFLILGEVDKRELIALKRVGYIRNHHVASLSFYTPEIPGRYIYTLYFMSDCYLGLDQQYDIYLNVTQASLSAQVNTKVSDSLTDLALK
UniProt Q96IX5: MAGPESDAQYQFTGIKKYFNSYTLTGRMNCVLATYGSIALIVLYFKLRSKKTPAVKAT
UniProt Q6P4H8: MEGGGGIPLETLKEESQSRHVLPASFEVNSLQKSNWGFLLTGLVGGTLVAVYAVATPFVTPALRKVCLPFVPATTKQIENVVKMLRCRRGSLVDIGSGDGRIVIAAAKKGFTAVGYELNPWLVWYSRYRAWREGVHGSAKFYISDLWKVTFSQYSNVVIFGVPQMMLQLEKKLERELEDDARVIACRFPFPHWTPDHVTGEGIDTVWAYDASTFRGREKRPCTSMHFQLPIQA
UniProt Q9Y6H3: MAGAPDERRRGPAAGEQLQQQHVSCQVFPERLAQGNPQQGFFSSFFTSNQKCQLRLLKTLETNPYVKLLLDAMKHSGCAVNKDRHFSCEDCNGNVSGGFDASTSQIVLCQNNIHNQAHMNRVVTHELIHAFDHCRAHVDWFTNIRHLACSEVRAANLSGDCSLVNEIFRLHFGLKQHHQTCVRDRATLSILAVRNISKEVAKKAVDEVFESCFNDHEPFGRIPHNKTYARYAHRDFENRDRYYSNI
UniProt Q6DD88: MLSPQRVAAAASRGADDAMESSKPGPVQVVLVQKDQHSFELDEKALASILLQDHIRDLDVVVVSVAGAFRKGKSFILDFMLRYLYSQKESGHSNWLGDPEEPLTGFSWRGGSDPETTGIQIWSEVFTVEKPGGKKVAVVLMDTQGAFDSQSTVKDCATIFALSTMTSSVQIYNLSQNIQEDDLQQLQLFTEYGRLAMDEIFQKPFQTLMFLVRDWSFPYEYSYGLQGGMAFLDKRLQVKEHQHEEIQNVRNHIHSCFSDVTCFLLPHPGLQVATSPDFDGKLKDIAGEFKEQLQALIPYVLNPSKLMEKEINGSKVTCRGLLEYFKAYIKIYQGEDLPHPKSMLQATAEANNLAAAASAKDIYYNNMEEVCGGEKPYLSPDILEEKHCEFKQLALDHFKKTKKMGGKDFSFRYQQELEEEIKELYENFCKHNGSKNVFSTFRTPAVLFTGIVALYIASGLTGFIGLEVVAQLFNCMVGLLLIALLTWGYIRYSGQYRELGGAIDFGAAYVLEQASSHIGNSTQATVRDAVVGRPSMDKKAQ
UniProt Q6NXE6: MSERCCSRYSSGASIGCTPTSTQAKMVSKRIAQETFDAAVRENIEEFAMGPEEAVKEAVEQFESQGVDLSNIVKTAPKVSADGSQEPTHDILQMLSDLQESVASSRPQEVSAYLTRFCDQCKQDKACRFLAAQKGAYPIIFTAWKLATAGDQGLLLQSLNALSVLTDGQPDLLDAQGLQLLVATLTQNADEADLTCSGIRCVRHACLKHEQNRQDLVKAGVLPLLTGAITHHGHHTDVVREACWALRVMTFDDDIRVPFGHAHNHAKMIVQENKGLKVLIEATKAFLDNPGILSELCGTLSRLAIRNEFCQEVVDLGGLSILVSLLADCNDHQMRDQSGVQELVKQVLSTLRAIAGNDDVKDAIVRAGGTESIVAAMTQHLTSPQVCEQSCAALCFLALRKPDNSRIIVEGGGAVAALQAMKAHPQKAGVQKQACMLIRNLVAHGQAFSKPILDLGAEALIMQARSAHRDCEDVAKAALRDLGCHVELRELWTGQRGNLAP
UniProt O94817, whole entry, looked up: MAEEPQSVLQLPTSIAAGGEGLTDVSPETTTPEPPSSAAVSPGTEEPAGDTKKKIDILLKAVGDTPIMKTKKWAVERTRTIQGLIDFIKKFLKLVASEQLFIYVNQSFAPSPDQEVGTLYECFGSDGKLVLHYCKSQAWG
UniProt O00244: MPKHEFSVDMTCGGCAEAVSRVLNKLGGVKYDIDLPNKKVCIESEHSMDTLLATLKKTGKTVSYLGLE
UniProt Q8N9N2: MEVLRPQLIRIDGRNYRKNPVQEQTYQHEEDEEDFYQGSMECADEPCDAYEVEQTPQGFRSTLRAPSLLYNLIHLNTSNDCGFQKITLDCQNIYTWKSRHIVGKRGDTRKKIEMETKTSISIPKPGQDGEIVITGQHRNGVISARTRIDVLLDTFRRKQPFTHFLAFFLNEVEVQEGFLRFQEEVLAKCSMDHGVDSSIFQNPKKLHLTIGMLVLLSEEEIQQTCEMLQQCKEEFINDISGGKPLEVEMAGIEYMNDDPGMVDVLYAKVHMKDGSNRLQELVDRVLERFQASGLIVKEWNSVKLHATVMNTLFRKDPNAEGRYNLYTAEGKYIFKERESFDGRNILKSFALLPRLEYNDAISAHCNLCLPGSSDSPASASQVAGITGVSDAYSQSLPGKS
UniProt Q8IUR7, whole entry, looked up: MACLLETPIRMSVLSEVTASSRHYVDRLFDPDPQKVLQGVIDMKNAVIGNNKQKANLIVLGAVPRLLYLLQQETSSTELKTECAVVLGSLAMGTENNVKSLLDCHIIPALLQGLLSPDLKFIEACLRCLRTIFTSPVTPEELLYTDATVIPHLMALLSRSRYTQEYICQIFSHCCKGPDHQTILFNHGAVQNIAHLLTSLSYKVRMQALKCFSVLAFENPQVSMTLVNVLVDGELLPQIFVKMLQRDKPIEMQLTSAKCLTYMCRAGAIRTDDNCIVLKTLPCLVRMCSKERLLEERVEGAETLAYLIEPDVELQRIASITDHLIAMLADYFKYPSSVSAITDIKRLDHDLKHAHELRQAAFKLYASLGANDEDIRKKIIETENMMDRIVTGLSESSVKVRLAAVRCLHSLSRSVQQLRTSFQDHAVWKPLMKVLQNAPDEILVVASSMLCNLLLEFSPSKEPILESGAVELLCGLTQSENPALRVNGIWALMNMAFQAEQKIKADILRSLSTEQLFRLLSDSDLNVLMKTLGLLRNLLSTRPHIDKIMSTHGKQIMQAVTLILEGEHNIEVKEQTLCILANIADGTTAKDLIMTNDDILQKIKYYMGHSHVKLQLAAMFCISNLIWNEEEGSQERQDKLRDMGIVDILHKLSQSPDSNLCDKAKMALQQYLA
UniProt P40616: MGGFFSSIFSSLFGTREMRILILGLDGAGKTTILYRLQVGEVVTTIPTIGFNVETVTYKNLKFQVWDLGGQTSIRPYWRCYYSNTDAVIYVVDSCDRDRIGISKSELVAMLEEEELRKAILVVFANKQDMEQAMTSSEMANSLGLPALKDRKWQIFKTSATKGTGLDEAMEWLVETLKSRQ

Columns and labels:
Experiment in all cases: log2 fold change, soluble protein after heating vs DMSO (PISA); higher = thermal stabilisation; K562 cells, 10 uM, 30 min; active = over 0.2 and 3.5 SD of the protein, either way, in both replicates (recomputed)
[1] = compound: NC(=O)Nc1cc(-c2cccc(F)c2)sc1C(=O)N[C@H]1CCCNC1
How it was run: (§1)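 Values are thermal stability changes relative to control samples and are taken from duplicates. They are stated as log2 fold changes. Before quantification by TMTpro 16plex LC-MS/MS with equalised channel sums, K562 cells at 2×10^6 cells/mL were treated with 10 μM compound for 30 min, heated in aliquots for 3 min across 48°C-58°C, pooled, extracted in PBS with 0.5% NP-40 at 4°C, and centrifuged at 21,000xg for 90 min to give the soluble supernatant.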

[2] = compound: NC(=O)c1cnc(N[C@@H]2CCCC[C@@H]2N)nc1Nc1cccc(-n2nccn2)c1
How it was run: as §1

[3] = compound: NC1(c2ccc(-c3nc4ccn5c(=O)[nH]nc5c4cc3-c3ccccc3)cc2)CCC1
How it was run: as §1

[4] = compound: NCC(=O)Nc1ccc(-n2nc(C(F)(F)F)cc2-c2ccc3c(ccc4ccccc43)c2)cc1
How it was run: as §1

entinostat = compound: Nc1ccccc1NC(=O)c1ccc(CNC(=O)OCc2cccnc2)cc1 [entinostat]
How it was run: as §1

vorinostat = compound: O=C(CCCCCCC(=O)Nc1ccccc1)NO [vorinostat]
How it was run: as §1

citarinostat = compound: O=C(CCCCCCNC(=O)c1cnc(N(c2ccccc2)c2ccccc2Cl)nc1)NO [citarinostat]
How it was run: as §1

silmitasertib = compound: O=C(O)c1ccc2c(c1)nc(Nc1cccc(Cl)c1)c1ccncc12 [silmitasertib]
How it was run: as §1

[5] = compound: O=C1NC(=O)C(c2cnc3ccccn23)=C1c1cn2c3c(cc(F)cc13)CN(C(=O)N1CCCCC1)CC2
How it was run: as §1

[6] = compound: c1cc(OCCN2CCCCC2)cc(-c2n[nH]c3ccc(-c4nnc[nH]4)cc23)c1
How it was run: as §1

Measured: log2 fold change

ATP2A3 isoform 2 (UniProt Q93084)
inactive: [1] -0.008 | [2] 0.007 | [3] -0.096 | [4] -0.072 | entinostat 0.035 | vorinostat -0.018 | citarinostat 0.019 | silmitasertib 0.068 | [5] -0.069 | [6] -0.05

ARMC10 (UniProt Q8N2F6)
inactive: [1] -0.039 | [2] 0.003 | [3] 0.005 | [4] 0.028 | entinostat 0.005 | vorinostat 0.056 | citarinostat 0.096 | silmitasertib 0.054 | [5] -0.039 | [6] -0.062

ATG13 isoform 5 (UniProt O75143)
inactive: [1] 0.031 | [2] -0.075 | [3] -0.001 | [4] -0.061 | entinostat -0.01 | vorinostat 0.003 | citarinostat 0.03 | silmitasertib -0.028 | [5] -0.056 | [6] -0.036

ATP11B (UniProt Q9Y2G3)
inactive: [1] -0.014 | [2] 0.063 | [3] 0.031 | [4] -0.075 | entinostat -0.032 | vorinostat -0.028 | citarinostat 0.024 | silmitasertib 0.056 | [5] -0.011 | [6] 0.006

ATP5MG (UniProt O75964)
inactive: [1] -0.001 | [2] 0.024 | [3] 0.07 | [4] 0.026 | entinostat 0.012 | vorinostat -0.138 | citarinostat -0.063 | silmitasertib -0.009 | [5] -0.131 | [6] -0.019

ARRB2 isoform 4 (UniProt P32121)
inactive: [1] 0.052 | [2] -0.034 | [3] -0.062 | [4] -0.052 | entinostat 0.028 | vorinostat -0.008 | citarinostat 0.041 | silmitasertib -0.05 | [5] -0.037 | [6] 0.018

ATP5F1D (UniProt P30049)
inactive: [1] 0.033 | [2] -0.09 | [3] -0.018 | [4] 0.025 | entinostat 0.014 | vorinostat -0.034 | citarinostat 0.049 | silmitasertib -0.019 | [5] -0.034 | [6] -0.01

ATP5F1B (UniProt P06576)
inactive: [1] 0.004 | [2] -0.007 | [3] 0.022 | [4] 0.003 | entinostat -0.018 | vorinostat -0.055 | citarinostat -0.028 | silmitasertib 0.005 | [5] -0.001 | [6] -0.02

ATG101 (UniProt Q9BSB4)
inactive: [1] 0.027 | [2] -0.049 | [3] -0.027 | [4] 0.031 | entinostat 0.092 | vorinostat 0.013 | citarinostat -0.005 | silmitasertib 0.101 | [5] 0.004 | [6] -0.016

ASCC3 (UniProt Q8N3C0)
inactive: [1] -0.23 | [2] -0.043 | [3] 0.076 | [4] 0.075 | entinostat 0.196 | vorinostat 0.033 | citarinostat 0.018 | silmitasertib 0.071 | [5] 0.307 | [6] 0.011

ATP5MD (UniProt Q96IX5)
inactive: [1] -0.004 | [2] -0.044 | [3] 0.151 | [4] 0.075 | entinostat 0.03 | vorinostat -0.188 | citarinostat 0.061 | silmitasertib -0.081 | [5] -0.074 | [6] -0.073

ATP1A1 (UniProt P05023)
inactive: [1] -0.055 | [2] 0.093 | [3] 0.116 | [4] 0.07 | entinostat -0.04 | vorinostat 0.03 | citarinostat -0.003 | silmitasertib -0.062 | [5] -0.077 | [6] 0.003

ATPSCKMT (UniProt Q6P4H8)
inactive: [1] 0.128 | [2] -0.028 | [3] -0.022 | [4] 0.016 | entinostat 0.044 | vorinostat -0.093 | citarinostat -0.008 | silmitasertib 0.068 | [5] 0 | [6] -0.061

ATP23 (UniProt Q9Y6H3)
inactive: [1] 0.014 | [2] 0.06 | [3] 0.002 | [4] -0.057 | entinostat -0.012 | vorinostat 0.044 | citarinostat -0.012 | silmitasertib -0.027 | [5] 0.02 | [6] -0.045

ATP6V0A2 (UniProt Q9Y487)
inactive: [1] -0.002 | [2] -0.072 | [3] -0.143 | [4] -0.024 | entinostat 0.021 | vorinostat 0 | citarinostat 0.036 | silmitasertib 0.079 | [5] 0.061 | [6] -0.043

ATL3 (UniProt Q6DD88)
inactive: [1] -0.004 | [2] -0.019 | [3] -0.121 | [4] -0.012 | entinostat 0.02 | vorinostat 0.062 | citarinostat 0.041 | silmitasertib -0.011 | [5] -0.033 | [6] -0.03

ATP5IF1 (UniProt Q9UII2)
inactive: [1] -0.039 | [2] -0.01 | [3] -0.02 | [4] 0.086 | entinostat -0.021 | vorinostat -0.07 | citarinostat -0.124 | silmitasertib -0.044 | [5] -0.092 | [6] 0.092

ATP13A2 (UniProt Q9NQ11)
active: [3] -0.336
inactive: [1] 0.032 | [2] 0.01 | [4] 0.064 | entinostat -0.005 | vorinostat 0.005 | citarinostat -0.054 | silmitasertib 0.026 | [5] -0.052 | [6] -0.025

ARMC6 (UniProt Q6NXE6)
inactive: [1] 0.091 | [2] -0.008 | [3] 0.058 | [4] 0.122 | entinostat 0.042 | vorinostat 0.034 | citarinostat 0.02 | silmitasertib 0.132 | [5] 0.234 | [6] -0.035

ARL6IP1 (UniProt Q15041)
inactive: [1] 0.035 | [2] 0.018 | [3] -0.001 | [4] 0.019 | entinostat 0.087 | vorinostat -0.04 | citarinostat -0.109 | silmitasertib 0.031 | [5] -0.059 | [6] -0.018

ARPC2 (UniProt O15144)
inactive: [1] -0.01 | [2] 0.013 | [3] -0.048 | [4] -0.002 | entinostat -0.031 | vorinostat -0.032 | citarinostat 0.028 | silmitasertib 0.061 | [5] -0.042 | [6] -0.011

ATPAF1 (UniProt Q5TC12)
inactive: [1] 0.081 | [2] -0.007 | [3] -0.082 | [4] 0.016 | entinostat 0.028 | vorinostat -0.032 | citarinostat 0.027 | silmitasertib 0.019 | [5] -0.018 | [6] -0.066

ARV1 (UniProt Q9H2C2)
inactive: [1] -0.03 | [2] -0.055 | [3] -0.103 | [4] -0.101 | entinostat 0.019 | vorinostat 0.024 | citarinostat 0.052 | silmitasertib 0.037 | [5] -0.004 | [6] -0.113

ATG12 (UniProt O94817)
inactive: [1] -0.03 | [2] -0.029 | [3] -0.131 | [4] 0.008 | entinostat 0.036 | vorinostat 0.152 | citarinostat 0.001 | silmitasertib -0.004 | [5] -0.008 | [6] -0.039

ATOX1 (UniProt O00244)
inactive: [1] 0.175 | [2] 0.273 | [3] -0.032 | [4] 0.03 | entinostat 0.081 | vorinostat -0.018 | citarinostat 0.091 | silmitasertib -0.105 | [5] -0.081 | [6] -0.004

ARRB1 (UniProt P49407)
inactive: [1] -0.01 | [2] 0.088 | [3] -0.03 | [4] 0.024 | entinostat -0.026 | vorinostat 0.071 | citarinostat -0.049 | silmitasertib 0.004 | [5] -0.019 | [6] 0.036

ATP1B2 (UniProt P14415)
inactive: [1] 0.007 | [2] 0.119 | [3] 0.01 | [4] 0.02 | entinostat -0.049 | vorinostat 0.014 | citarinostat -0.081 | silmitasertib 0.031 | [5] -0.15 | [6] 0.044

ASCC1 isoform 2 (UniProt Q8N9N2)
inactive: [1] -0.01 | [2] -0.066 | [3] -0.145 | [4] -0.026 | entinostat 0.035 | vorinostat 0.045 | citarinostat 0.009 | silmitasertib 0.017 | [5] 0.009 | [6] -0.133

ARMC8 (UniProt Q8IUR7)
inactive: [1] -0.044 | [2] 0.017 | [3] -0.087 | [4] 0.002 | entinostat -0.031 | vorinostat -0.031 | citarinostat 0.057 | silmitasertib 0.058 | [5] 0.026 | [6] -0.028

ARL1 (UniProt P40616)
inactive: [1] 0.142 | [2] 0.055 | [3] -0.173 | [4] -0.019 | entinostat 0.031 | vorinostat 0.149 | citarinostat 0.161 | silmitasertib 0.006 | [5] 0.04 | [6] 0.007

Random excerpt: 2 entries already listed.
ARRB2 isoform 4 (UniProt P32121)
inactive: [1] 0.052 | [2] -0.034 | [3] -0.062 | [4] -0.052 | entinostat 0.028 | vorinostat -0.008 | citarinostat 0.041 | silmitasertib -0.05 | [5] -0.037 | [6] 0.018

ATPAF1 (UniProt Q5TC12)
inactive: [1] 0.081 | [2] -0.007 | [3] -0.082 | [4] 0.016 | entinostat 0.028 | vorinostat -0.032 | citarinostat 0.027 | silmitasertib 0.019 | [5] -0.018 | [6] -0.066
